At least one structure is not confirmed: it was looked up by name or label, or the drawing left a doubt.
Experiments:
psoriasis plaques [1] = assay: Example 2: treatment of psoriasis, crossover; format: in vivo, human; settings: during the first two (2) week treatment period
psoriasis plaques [2] = assay: Example 1: treatment of psoriasis, no crossover; format: in vivo, human; settings: during the two (2) week treatment period, twice daily topical

SMILES: CC1(C)O[C@@H]2C[C@H]3[C@@H]4CCC5=CC(=O)C=C[C@]5(C)[C@@]4(F)[C@@H](O)C[C@]3(C)[C@]2(C(=O)CO)O1 [triamcinolone acetonide]
- state of psoriatic plaques (psoriasis plaques [1]): remained unchanged and inflamed
- state of psoriatic plaques (psoriasis plaques [2]): remained unchanged and inflamed
